Experimental data: PubChem BioAssay AID1259405 (NCATS, 2018)

Test: 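Mouse-designed siRNAs used to find CHO productivity engineering targets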 (primary screen)
System: Chinese hamster CHO-K1 ovary cells with stable secreted eGFP expression
Knock-down reagent: single siRNA against mouse genes, 0.8 pmol siRNA per well (2 µl of 400 nM stock)
Duration: 3 days
Read-out: 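Percent of the per-plate non-targeting control median for intracellular GFP per well by laser scanning cytometry and for cell viability by ATP luminescence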
Reading the numbers: GFP, % of control: higher = more GFP per well, higher productivity; viability (ATP), % of control: higher = more viable cells (more ATP)
Hit rule: 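a knock-down is called active if GFP reaches 120% or more of non-targeting control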
In all, the deposit lists about 50,000 reagents; this is a random part of them. Of all reagents, about 4,000 (8%) are marked active. 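Mouse siRNA library applied to hamster cells; one well for each siRNA.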 Reagents against one gene are numbered here.

target gene | reagent no. | GFP, % of control | viability (ATP), % of control | call
Gm773 (GeneID 331416) | 1 | 44.9 | 45.4 | inactive
Gm773 (GeneID 331416) | 2 | 90.9 | 89.2 | inactive
Gm773 (GeneID 331416) | 3 | 63.6 | 83.1 | inactive
Aldh1a1 (GeneID 11668) | 1 | 122 | 123 | active
Aldh1a1 (GeneID 11668) | 2 | 45.9 | 58.5 | inactive
Aldh1a1 (GeneID 11668) | 3 | 64.3 | 74.6 | inactive
Timp4 (GeneID 110595) | 1 | 58.4 | 91.5 | inactive
Timp4 (GeneID 110595) | 2 | 46 | 72.9 | inactive
Timp4 (GeneID 110595) | 3 | 56.9 | 74.4 | inactive
Catsper1 (GeneID 225865) | 1 | 91.2 | 121 | inactive
Catsper1 (GeneID 225865) | 2 | 61 | 47.5 | inactive
Pcdhb4 (GeneID 93875) | 1 | 90.8 | 91.2 | inactive
Pcdhb4 (GeneID 93875) | 2 | 70.2 | 80.1 | inactive
Pcdhb4 (GeneID 93875) | 3 | 86 | 80 | inactive
Cabp4 (GeneID 73660) | 1 | 75.2 | 80.3 | inactive
Cabp4 (GeneID 73660) | 2 | 119 | 75.6 | inactive
Xtbd1 (GeneID 52626) | 1 | 71.7 | 67.3 | inactive
Xtbd1 (GeneID 52626) | 2 | 90.5 | 81.1 | inactive
Xtbd1 (GeneID 52626) | 3 | 82.5 | 82.9 | inactive
Or2b28 (GeneID 258526) | 1 | 74.9 | 79.6 | inactive
Or2b28 (GeneID 258526) | 2 | 86.8 | 95.7 | inactive
Or2b28 (GeneID 258526) | 3 | 50.8 | 86.6 | inactive
Lrpprc (GeneID 72416) | 1 | 70.3 | 118 | inactive
Lrpprc (GeneID 72416) | 2 | 83 | 81.2 | inactive
Lrpprc (GeneID 72416) | 3 | 54.2 | 72.6 | inactive
Dnm1l (GeneID 74006) | 1 | 66.3 | 60 | inactive
Dnm1l (GeneID 74006) | 2 | 32.5 | 43.1 | inactive
Dnm1l (GeneID 74006) | 3 | 80.1 | 73.6 | inactive
Suv39h1 (GeneID 20937) | 1 | 51.7 | 75.8 | inactive
Suv39h1 (GeneID 20937) | 2 | 80.4 | 96.5 | inactive

An excerpt from above, showing only “viability (ATP), % of control”:
Catsper1 (GeneID 225865) #1: 121
Catsper1 (GeneID 225865) #2: 47.5
Pcdhb4 (GeneID 93875) #1: 91.2

The list goes on.
target gene | reagent no. | GFP, % of control | viability (ATP), % of control | call
4930544G11Rik (GeneID 67653) | 1 | 64.1 | 41.6 | inactive
4930544G11Rik (GeneID 67653) | 2 | 40.7 | 33 | inactive
4930544G11Rik (GeneID 67653) | 3 | 87.2 | 67.1 | inactive
Mrps24 (GeneID 64660) | 1 | 79.5 | 88.1 | inactive
Mrps24 (GeneID 64660) | 2 | 116 | 27.4 | inactive
Mrps24 (GeneID 64660) | 3 | 86.5 | 82.9 | inactive
Ube2z (GeneID 268470) | 1 | 63.2 | 66.9 | inactive
Ube2z (GeneID 268470) | 2 | 54.9 | 52.2 | inactive
Ube2z (GeneID 268470) | 3 | 82.1 | 133 | inactive
Polr3d (GeneID 67065) | 1 | 80.9 | 60.3 | inactive
Polr3d (GeneID 67065) | 2 | 86.3 | 54.6 | inactive
Polr3d (GeneID 67065) | 3 | 79.8 | 58.1 | inactive
Cxcl2 (GeneID 20310) | 1 | 70.4 | 68.9 | inactive
Cxcl2 (GeneID 20310) | 2 | 110 | 97.8 | inactive
Cxcl2 (GeneID 20310) | 3 | 67.7 | 54.1 | inactive
Gtf3c5 (GeneID 70239) | 1 | 60.5 | 78 | inactive
Gtf3c5 (GeneID 70239) | 2 | 76.8 | 88 | inactive
Gtf3c5 (GeneID 70239) | 3 | 81.2 | 40.4 | inactive
Pmfbp1 (GeneID 56523) | 1 | 59 | 54.1 | inactive
Pmfbp1 (GeneID 56523) | 2 | 53.8 | 44.1 | inactive
Pmfbp1 (GeneID 56523) | 3 | 81.6 | 90 | inactive
Rmc1 (GeneID 76482) | 1 | 83.3 | 106 | inactive
Rmc1 (GeneID 76482) | 2 | 66 | 81.8 | inactive
Rmc1 (GeneID 76482) | 3 | 80.2 | 72.9 | inactive
Slc39a10 (GeneID 227059) | 1 | 138 | 75.8 | active
Slc39a10 (GeneID 227059) | 2 | 90.7 | 79.2 | inactive
Slc39a10 (GeneID 227059) | 3 | 70.1 | 94.7 | inactive
